This experiment concerns the target α5 integrin (mouse (endogenous in mouse lung microvascular ECs)). The experiment is described as follows: affinity purification with mass spectrometry; endogenous α5 integrin immunoprecipitated (Dynabeads Protein G with anti-α5 integrin antibody, 4 °C) from mouse microvascular EC lysates: WT/Ctrl, and siNRP1, siNRP2, siNRP1/2, sip120RasGAP ECs; α5.EC KO lysates as control for non-specific binding; LFQ-DIA-MS, Spectronaut, p < 0.01 cutoff; three independent experiments.

These are yes or no findings as the source states them, for the method shown. In cells and extracts the contact can be indirect. A yes stands for co-enrichment or nearness to the bait. Other partners may have been found.

B1: Sorting nexin 18 (protein, UniProt Q91ZR2 1-614)
chain: MALRARALYDFKSENPGEISLREHEVLSLCSEQDIEGWLEGINSRGDRGLFPASYVQVIRAPEPGPPADGGPGAPARYANVPPGGFEPLPAAPPAAFPPLLQPQASPGSFQPPGAGFPYGGGALQPSPQQLYGGYQASLGSDDDWDDEWDDSSTVADEPGALGSGAYPDLDGSSSAGGGAAGRYRLSTRSDLSLGSRGVSAPPAPSVWSQELGHGEPQPQSLLHLRQVGRGGLRAGRGVRLREGWGQAVRGAGSYGPEWQENPYPFQCTIDDPTKQTKFKGMKSYISYKLVPTHTQVPVHRRYKHFDWLYARLAEKFPVISVPHLPEKQATGRFEEDFISKRRKGLIWWMNHMASHPVLAQCDVFQHFLTCPSSTDEKAWKQGKRKAEKDEMVGANFFLTLSTPPAAALDLQEVESKIDGFKCFTKKMDDSALQLNHTANEFARKQVTGFKKEYQKVGQSFRGLSQAFELDQQAFSVGLNQAIAFTGDAYDAIGELFAEQPRQDLDPVMDLLALYQGHLANFPDIIHVQKGALTKVKESRRHVEEGKMEVQKADGIQDRCNTISFATLAEIHHFHQIRVRDFKSQMQHFLQQQIIFFQKVTQKLEEALHKYDSV
Consider B1, for which the binding entry is listed as “binds”.

B2: Kif4 (protein, UniProt P33174 1-1231)
chain: MKEEVKGIPVRVALRCRPLVSKEIKEGCQTCLSFVPGEPQVVVGNDKSFTYDFVFDPSTEQEEVFNTAVAPLIKGVFKGYNATVLAYGQTGSGKTYSMGGAYTAEQEHDSAIGVIPRVIQLLFKEINKKSDFEFTLKVSYLEIYNEEILDLLCSSREKATQINIREDPKEGIKIVGLTEKTVLVASDTVSCLEQGNNSRTVASTAMNSQSSRSHAIFTISIEQRKKNDKNSSFRSKLHLVDLAGSERQKKTKAEGDRLREGININRGLLCLGNVISALGDDKKGNFVPYRDSKLTRLLQDSLGGNSHTLMIACVSPADSNLEETLNTLRYADRARKIKNKPIINIDPQAAELNHLKQQVQQLQILLLQAHGGTLPGDINVEPSENLQSLMEKNQSLVEENEKLSRGLSEAAGQTAQMLERIILTEQANEKMNAKLEELRRHAACKVDLQKLVETLEDQELKENIEIICNLQQVIAQLSDEAAACMTATIDTAGEADTQVQSSPDTSRSSDVFSTQHALRQAQMSKELIELNKALALKEALAKKMTQNDNQLQPIQFQYQDNIKNLESEVLSLQREKEELVLELQTAKKDANQAKLSERRRKRLQELEGQIADLKKKLQEQSKLLKLKESTEHTVSKLNQEIRMMKNQRVQLMRQMKEDAEKFRQWKQQKDKEVIQLKERDRKRQYELLKLERNFQKQSNVLRRKTEEAAAANKRLKDALQKQKEVAEKRKETQSRGMESTAARMKNWLGNEIEVMVSTEEAKRHLNGLLEERKILAQDVAQLKEKRESGENPPLKLRRRTFSYDEIHGQDSGAEDSIAKQIESLETELELRSAQIADLQQKLLDAESEDRPKQRWESIATILEAKCAIKYLVGELVSSKILVSKLESSLNQSKASCIDVQKMLFEEQNHFAKIETELKEELVKVEQQHQEKVLYLLSQLQQSQMTEKQLEESVSEKEQQLLSTLKCQEEELRKMQEVCEQNQQLLQENSAIKQKLTLLQVASKQKPHLTRNIFQSPDSSFEYIPPKPKPCRIKEKCLEQSFAVEGLQYYSEPSVAEQDNEDSDDHADEEWIPTKLVKVSKKSIQGCSCKGWCGNKQCGCRKQKSDCNVSCSCDPTKCRNRHQNQDNSDAIELNQDSENSFKLEDPTEVTSGLSFFHPICATPSSKILKEMCDADQVQLKQPVFVSSSDHPELKSIASESQENKAIGKKKKRALASNTSFFSGCSPIQEESH
As to B2, the binding entry is listed as “binds”.

B3: Kifc1 (protein, UniProt Q9QWT9 1-674)
chain: MDVQAQRPPLLEVKRNVELKAALVKSSSRVPLSASRLKRGPDQMEDALEPAKKRTRVMGAVTKVDTSRPRGPLLSTVSQTQGHTAAQKGPKKTGPRGCSAIGTVLRSQKPVPAAPAQKPGTSTAPVVVGKRAGKRPAWDLKGQLCDLNEELKRYREKTQTLELENRGLREQLREVQEQATTLGTERNTLEGELASVRSRAEQDQQRLETLSARVLELEECLGTRERLLQELQGERLQLQEERSTLSTQLEEQERRFQATEAALSSSQEEVVCLRQKTEAQVTLLAEQGDRLYGLEMERRRLHNQLQELKGNIRVFCRVRPVLEGESTPSPGFLVFPPGPAGPSDPPTGLSLSRSDDRRSTLTGAPAPTVRHDFSFDRVFPPGSKQEEVFEEIAMLVQSALDGYPVCIFAYGQTGSGKTFTMEGGPRGDPQLEGLIPRAMRHLFSVAQEMSGQGWTYSFVASYVEIYNETVRDLLATGPRKGQGGECEIRRASPGSEELTVTNARYVPVSCEKEVEALLHLAHQNRAVAHTAQNKRSSRSHSVFQLQISGEHAARGLQCGAPLNLVDLAGSERLDPGLHLGPGERDRLRETQAINSSLSTLGLVIMALSNKESHVPYRNSKLTYLLQNSLGGSAKMLMFVNISPLEENVSESLNSLRFASKVNQCVIGTAQANKK
Take B3: the binding result is “binds”.

B4: Kif23 (protein, UniProt E9Q5G3 1-953)
chain: MKSAKAKTVRKPVIKKGSQTNLKDPVGVYCRVRPLSFPDQECCVEVINSTTLQLHTPEGYRLNRNGDYKETQYSFKRVFGTHTTQKELFDVVANPLVDDLIHGKNGLLFTYGVTGSGKTYTMTGSPGSGGLLPRCLNMIFNSIGSFQAKRYVFKSNDRNSMEIQCEVDALLERQKREALPIPKTPSSKRQADPEFADMINVQEFCKAEEVDEDSVYGVFVSYIEIYNNYIYDLLEEVQFDPIKPKLPQSKTLREDKNHNMYVAGCTEVEVKSTEEAFEVFWRGQKKRRIANTHLNRESSRSHSVFSIKLVQAPLDADGDNVLQEKEQITISQLSLVDLAGSERTNRTKAEGNRLREAGNINQSLMTLRTCMEVLRENQTYGTNKMVPYRDSKLTHLFKNYFDGEGKVRMIVCVNPKAEDYEESLQVMRFAEVTQEVEVARPVDKVICGLTPGRRYRNLPRGGPVGDEPLVPEVILQSFPPLPPCKLLDINDEETLPKLADTLEKRHHLRQLMTEDLNKKCLAFKALLKEFDNSLSNKENYVQEKLNEREKVISGQKLEIERLEKKNKTLEYKIEILEKTTTIYEEDKRNLQQELESQNQKLQRQFSDKRRLEARLQGMVTETSMKWQKECERRVAATQLEMQNKLWVKDEKLKQLKAIVTEPKPEKPERPSRERDREKIIPRSVSPSPLPLSSNNIAQISNGQQLMSQPQLHRRSNSCSSISVASCISEWEQKLSPFSTPVNVTSLARHRQQEPGQSKTCIVSDRRRGMCWTEGREMVPTFSSEIGVEEDHCRRNTPIPVRHRRSRSAGSRWVDHKPASNVQTETVMQPHVPHAITVSVANEKALAKCEKYMLTHQELASDGEIQTKVIKGDVYKTRGGGQSVQFTDIETLKQELPTGSRKRRSSTLAPAQPDGTESEWTDVETRCSVAVEMRAGSQLGPGYQHHAQPKRKKP
Regarding B4, the binding entry is recorded as “binds”.

The record behind these values is paper PMC11126613.
